Article doi:10.1101/2023.05.22.23290124
Results are given in words; binding and its absence hold for the method and conditions named. Binding seen in cells or lysates may run through a third protein. These calls come from enrichment with a bait or labelling near it, and not all partners need be listed.

Protein sequences, listed by entry. Tags and fused reporters are not part of them.
UniProt P25786: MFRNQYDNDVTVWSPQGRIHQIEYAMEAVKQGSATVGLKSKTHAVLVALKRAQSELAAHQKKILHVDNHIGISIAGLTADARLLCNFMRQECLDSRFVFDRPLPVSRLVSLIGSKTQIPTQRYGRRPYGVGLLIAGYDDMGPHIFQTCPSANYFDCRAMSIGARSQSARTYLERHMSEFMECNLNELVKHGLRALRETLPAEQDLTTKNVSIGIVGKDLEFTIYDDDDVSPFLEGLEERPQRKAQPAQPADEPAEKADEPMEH
UniProt Q13148: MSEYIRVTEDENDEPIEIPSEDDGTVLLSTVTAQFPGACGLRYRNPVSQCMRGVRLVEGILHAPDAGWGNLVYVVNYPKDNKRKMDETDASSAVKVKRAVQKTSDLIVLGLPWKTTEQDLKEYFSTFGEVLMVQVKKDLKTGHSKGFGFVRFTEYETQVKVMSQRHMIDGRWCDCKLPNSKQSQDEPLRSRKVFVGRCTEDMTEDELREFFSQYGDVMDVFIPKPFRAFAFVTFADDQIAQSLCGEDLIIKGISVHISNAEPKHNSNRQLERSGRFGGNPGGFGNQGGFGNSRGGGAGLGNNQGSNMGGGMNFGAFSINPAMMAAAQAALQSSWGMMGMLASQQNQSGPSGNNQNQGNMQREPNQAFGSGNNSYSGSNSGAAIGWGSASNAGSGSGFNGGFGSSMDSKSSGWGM

Biological target: PSMA1 (a core component of 20S proteasome) (human (endogenous in hiPSC-derived neurons)) (UniProt P25786)
Test: affinity purification with mass spectrometry

## TDP-43 (from UniProt Q13148 1-414)
  binding: binds
